The assay addresses cynomolgus GPRC5D (cynomolgus). Briefly: cell ELISA on CHO cells expressing cynomolgus GPRC5D. A general note: An ELISA detects its analyte on a solid surface through an enzyme-linked reagent.

Results are given in words; binding and its absence hold for the method and conditions named. Binding calls can cover weak binding; strength is not graded here.

B1: 5E11 IgG (antibody, V domains shown)
VH: ELQLEQSGGGLVQPGGSLTLSCAASGFTFSKYAMAWVRQAPTKGLEWVASISTGGVNTYYRDSVKARFTISRDNAKNTQYLQMDSLRSEDTATYYCATHTGDYFDYWGQGVMVTVSS
VL: DIVLTQSPALAVSPGQRATISCRASQSVSISGINLMNWYQQKPGQQPKLLIYHASILASGIPTRFSGSGSGTDFTLTIDPVQADDIATYYCQQTRESPLTFGSGTNLEIK
Take B1: the binding entry is reported as “binds”.

B2: 10B10 IgG (antibody, V domains shown)
VH: EVQLVESGGGLVQPGRSMKLSCAASGFTFTNFYMAWVRQAPTKALEWVASINTGGGYTYYRDSVKGRFTVSRDNTRSTLYLQMDSLRSEETATYYCARHLTYYGRYYYFDYWGQGVMVTVSS
VL: DIQLTQSPHSLSASLGETVSIECLASEGISNYLAWFHQKPGKSPQLLIYYASSLQDGVPSRFSGSGSGTQYSLKISNMQPEDEGVYYCQQGYKYPLTFGSGTKLEIK
Turning to B2, the binding entry is on record as “binds”.

B3: 5F11 IgG (antibody, V domains shown)
VH: EVQLVESGGGLVQPGRSLKLSCAASGFSFSNYGMAWVRQAATKGLEWVASISTGGGNTYYRDSVKGRFIVSRDNAKNTQYLQMDSLRSEDTATYYCTRHDRGGLYWGQGVMVTVSS
VL: DIVMTQAPLSVSVTPGESASISCRSSKSLLHSNGITYVYWYFQKPGKSPQVLIYRMSNLASGVPDRFSGSGSETDFTLKISRVEAEDVGIYHCGQLLENPYTFGAGTELELK
As to B3, the binding entry is “binds”.

B4: 07A04 IgG (antibody, V domains shown)
VH: QVTLKESGPGILQPSHTLSLTCSFSGFSLSTYGMGVNWIRQPSGKGLEWLASIWWNGNTYNNPSLKSRLTVSKDTSNNQAFLKVTSVDTADTATYYCVHTRGIIRGRGLFFDYWGQGVMVTVSS
VL: DVQMTQSPYNLAASPGESVSINCKASKSISKYLAWYQQKPGKANKLLIYDGSTLQSGIPSRFSGSGSGTDFTLTIRSLEPEDFGLYYCQQHNEYPLTFGSGTKLEIKR
For B4, the binding result is “binds”.

The values above are taken from patent US20220411491A1.
